# Assay results from PMC2964679, “Characterization of exceptionally thermostable single-stranded DNA-binding proteins from Thermotoga maritima and Thermotoga neapolitana” (BMC Microbiology, 2010).
# Target: T1, TaqSSB (Thermus aquaticus YT1) (UniProt Q9KH06)
# T1 sequence (looked up, limits assumed): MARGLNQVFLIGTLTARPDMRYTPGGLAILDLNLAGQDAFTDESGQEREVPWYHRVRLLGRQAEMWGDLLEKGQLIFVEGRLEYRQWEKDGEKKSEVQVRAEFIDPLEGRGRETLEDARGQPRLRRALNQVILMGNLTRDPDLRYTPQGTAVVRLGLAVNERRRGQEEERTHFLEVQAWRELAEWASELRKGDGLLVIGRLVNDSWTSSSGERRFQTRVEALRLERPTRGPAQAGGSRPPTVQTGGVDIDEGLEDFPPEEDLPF
# Experiment: EMSA (agarose)
# Details: 100 mM NaCl, preincubation at 85-95°C, binding half-life 15 min at 85°C, 3 min at 90°C, 30 s at 95°C; 20 mM Tris-HCl pH 7.5, 1 mM EDTA, 2 or 100 mM NaCl, 25°C; EMSA 10 pmol oligo (1.5 pmol M13) with 10-200 pmol SSB in 10 µl, 2% agarose in TAE; recombinant protein; label: 5'-fluorescein (EMSA); single-stranded DNA
sequence,measurement,value
TTTTTTTTTTTTTTTTTTTTTTTTTTTTTTTTTTT [(dT)35],binding result,binds

# For at least one entry, the source does not settle the construct or the ends of the probe. At least one verdict was read from the data and is not stated in words by the source. Protein sequences can lack the tags named with them.
